Values from PubChem BioAssay AID1224829 (NIAID, 2016).
Assay: 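Genes needed for LPS-driven NF-kappaB p65 nuclear entry in mouse macrophages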 (follow-up of hits). System: mouse RAW264.7 G9 macrophage reporter cells. Reagent: single siRNA against mouse genes, 100 nM. Time to read-out: 2 days of siRNA knock-down, then 40 min of LPS before fixing. Conditions: LPS (Salmonella minnesota R595) at 10 ng/ml. Measured: 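Imaging of GFP-p65 after 40 min of LPS; nuclear over perinuclear ring intensity ratio, scaled to plate median and non-targeting control wells, given as z-score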. Direction: p65 translocation z-score and gene median z-score, per vendor: higher = more nuclear NF-kappaB p65 after LPS. Active means: 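Active means the replicate-mean z-score lies beyond plus or minus 2, in either direction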. Calls: active = changed p65 translocation (either direction); inactive = no clear change.
The whole screen tested about 3,800 reagents; this is a part drawn at random. 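Calls cover raised and lowered translocation; gene median uses one vendor's three siRNAs; qiagen siRNAs acted more weakly than ambion siRNAs.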

gene	PubChem SID	siRNA vendor or control pool	p65 translocation z-score, replicate mean	p65 translocation z-score, replicate 1	p65 translocation z-score, replicate 2	gene median z-score, per vendor	Call
Sqor (sulfide quinone oxidoreductase)	SID315486183	ambion single siRNA	-0.976	-1.31	-0.643	-1.52	inactive
Sqor (sulfide quinone oxidoreductase)	SID315486184	ambion single siRNA	-1.52	-1.56	-1.48	-1.52	inactive
Sqor (sulfide quinone oxidoreductase)	SID315486185	ambion single siRNA	-2.04	-1.69	-2.38	-1.52	active
Sqor (sulfide quinone oxidoreductase)	SID315486186	qiagen single siRNA	0.283	0.337	0.228	-0.839	inactive
Sqor (sulfide quinone oxidoreductase)	SID315486187	qiagen single siRNA	-0.933	-1.03	-0.839	-0.839	inactive
Sqor (sulfide quinone oxidoreductase)	SID315486188	qiagen single siRNA	-6.15	-6.15		-0.839	active
Gdf1 (growth differentiation factor 1)	SID315484194	qiagen single siRNA	-0.217	-0.248	-0.186	-1.3	inactive
Gdf1 (growth differentiation factor 1)	SID315484195	qiagen single siRNA	-1.3	-1.3		-1.3	inactive
Gdf1 (growth differentiation factor 1)	SID315484196	qiagen single siRNA	-4.8	-4.54	-5.06	-1.3	active
Batf3 (basic leucine zipper transcription factor, ATF-like 3)	SID315489117	ambion single siRNA	0.561	-1.04	2.16	-3.67	inactive
Batf3 (basic leucine zipper transcription factor, ATF-like 3)	SID315489118	ambion single siRNA	-3.8	-4.1	-3.5	-3.67	active
Batf3 (basic leucine zipper transcription factor, ATF-like 3)	SID315489119	ambion single siRNA	-3.9	-3.84	-3.96	-3.67	active
Batf3 (basic leucine zipper transcription factor, ATF-like 3)	SID315489120	qiagen single siRNA	-0.11	-0.96	0.74	-0.3	inactive
Batf3 (basic leucine zipper transcription factor, ATF-like 3)	SID315489121	qiagen single siRNA	0.502	0.36	0.643	-0.3	inactive
Batf3 (basic leucine zipper transcription factor, ATF-like 3)	SID315489122	qiagen single siRNA	-2.01	-3.03	-0.995	-0.3	active
Inhca (inhibitor of carbonic anhydrase)	SID315486681	ambion single siRNA	-1.21	-1.14	-1.28	-1.42	inactive
Inhca (inhibitor of carbonic anhydrase)	SID315486682	ambion single siRNA	-1.19	-0.819	-1.56	-1.42	inactive
Inhca (inhibitor of carbonic anhydrase)	SID315486683	ambion single siRNA	-1.95	-1.96	-1.94	-1.42	inactive
Inhca (inhibitor of carbonic anhydrase)	SID315486684	qiagen single siRNA	2.62	1.94	3.3	-0.636	active
Inhca (inhibitor of carbonic anhydrase)	SID315486685	qiagen single siRNA	-0.657	-0.636	-0.679	-0.636	inactive
Inhca (inhibitor of carbonic anhydrase)	SID315486686	qiagen single siRNA	-4.37	-4.37		-0.636	active
Zmat4 (zinc finger, matrin type 4)	SID315488910	ambion single siRNA	-2.17	-2.23	-2.12	-2.49	active
Zmat4 (zinc finger, matrin type 4)	SID315488911	ambion single siRNA	-1.77	-2.74	-0.792	-2.49	inactive
Zmat4 (zinc finger, matrin type 4)	SID315488912	ambion single siRNA	-4.56	-4.8	-4.32	-2.49	active
Zmat4 (zinc finger, matrin type 4)	SID315488913	qiagen single siRNA	3.38	3.08	3.68	2.25	active
Zmat4 (zinc finger, matrin type 4)	SID315488914	qiagen single siRNA	2.82	1.41	4.23	2.25	active
Zmat4 (zinc finger, matrin type 4)	SID315488915	qiagen single siRNA	0.163	1.33	-1.01	2.25	inactive
Or2n1d (olfactory receptor family 2 subfamily N member 1D)	SID315488709	ambion single siRNA	-1.53	-1.53		-4.13	inactive
Or2n1d (olfactory receptor family 2 subfamily N member 1D)	SID315488710	ambion single siRNA	-6.66	-7.93	-5.39	-4.13	active
Or2n1d (olfactory receptor family 2 subfamily N member 1D)	SID315488711	ambion single siRNA	-2.87	-2.87		-4.13	active
Or2n1d (olfactory receptor family 2 subfamily N member 1D)	SID315488712	qiagen single siRNA	-0.311	-0.288	-0.333	0.793	inactive
Or2n1d (olfactory receptor family 2 subfamily N member 1D)	SID315488713	qiagen single siRNA	2.35	1.33	3.36	0.793	active
Or2n1d (olfactory receptor family 2 subfamily N member 1D)	SID315488714	qiagen single siRNA	1.18	2.11	0.254	0.793	inactive
Ctnna1 (catenin alpha 1)	SID315483891	ambion single siRNA	0.549	1.16	-0.064	-1	inactive
Ctnna1 (catenin alpha 1)	SID315483892	ambion single siRNA	-3.68	-3.67	-3.69	-1	active
Ctnna1 (catenin alpha 1)	SID315483893	ambion single siRNA	0.266	2.48	-1.94	-1	inactive
Ctnna1 (catenin alpha 1)	SID315483894	qiagen single siRNA	1.12	0.576	1.67	0.156	inactive
Ctnna1 (catenin alpha 1)	SID315483895	qiagen single siRNA	-0.445	-0.264	-0.626	0.156	inactive
Ctnna1 (catenin alpha 1)	SID315483896	qiagen single siRNA				0.156	inactive

Sorted by “gene median z-score, per vendor” (high to low): some entries from above
gene	PubChem SID	siRNA vendor or control pool	p65 translocation z-score, replicate mean	p65 translocation z-score, replicate 1	p65 translocation z-score, replicate 2	gene median z-score, per vendor	Call
Zmat4 (zinc finger, matrin type 4)	SID315488913	qiagen single siRNA	3.38	3.08	3.68	2.25	active
Zmat4 (zinc finger, matrin type 4)	SID315488914	qiagen single siRNA	2.82	1.41	4.23	2.25	active
Zmat4 (zinc finger, matrin type 4)	SID315488915	qiagen single siRNA	0.163	1.33	-1.01	2.25	inactive
Or2n1d (olfactory receptor family 2 subfamily N member 1D)	SID315488712	qiagen single siRNA	-0.311	-0.288	-0.333	0.793	inactive
Zmat4 (zinc finger, matrin type 4)	SID315488910	ambion single siRNA	-2.17	-2.23	-2.12	-2.49	active
Zmat4 (zinc finger, matrin type 4)	SID315488911	ambion single siRNA	-1.77	-2.74	-0.792	-2.49	inactive
Zmat4 (zinc finger, matrin type 4)	SID315488912	ambion single siRNA	-4.56	-4.8	-4.32	-2.49	active
Or2n1d (olfactory receptor family 2 subfamily N member 1D)	SID315488709	ambion single siRNA	-1.53	-1.53		-4.13	inactive
Or2n1d (olfactory receptor family 2 subfamily N member 1D)	SID315488710	ambion single siRNA	-6.66	-7.93	-5.39	-4.13	active
Or2n1d (olfactory receptor family 2 subfamily N member 1D)	SID315488711	ambion single siRNA	-2.87	-2.87		-4.13	active

Further results follow:
gene	PubChem SID	siRNA vendor or control pool	p65 translocation z-score, replicate mean	p65 translocation z-score, replicate 1	p65 translocation z-score, replicate 2	gene median z-score, per vendor	Call
Adam10 (a disintegrin and metallopeptidase domain 10)	SID315483660	ambion single siRNA	1.3	2.31	0.295	-0.109	inactive
Adam10 (a disintegrin and metallopeptidase domain 10)	SID315483661	ambion single siRNA	-0.802	-0.115	-1.49	-0.109	inactive
Adam10 (a disintegrin and metallopeptidase domain 10)	SID315483662	ambion single siRNA	-0.946	-1.79	-0.104	-0.109	inactive
Adam10 (a disintegrin and metallopeptidase domain 10)	SID315483663	qiagen single siRNA	-1.05	-1.73	-0.375	-1.4	inactive
Adam10 (a disintegrin and metallopeptidase domain 10)	SID315483664	qiagen single siRNA	-0.726	-1.31	-0.141	-1.4	inactive
Adam10 (a disintegrin and metallopeptidase domain 10)	SID315483665	qiagen single siRNA	-1.61	-1.73	-1.49	-1.4	inactive
Hhat (hedgehog acyltransferase)	SID315488295	ambion single siRNA	-0.952	-0.753	-1.15	-0.952	inactive
Hhat (hedgehog acyltransferase)	SID315488296	ambion single siRNA	-3.06	-4.08	-2.03	-0.952	active
Hhat (hedgehog acyltransferase)	SID315488297	ambion single siRNA	-0.667	-0.678	-0.656	-0.952	inactive
Hhat (hedgehog acyltransferase)	SID315488298	qiagen single siRNA	1.07	1.39	0.76	-0.354	inactive
Hhat (hedgehog acyltransferase)	SID315488299	qiagen single siRNA	-2.51	-2.51		-0.354	active
Hhat (hedgehog acyltransferase)	SID315488300	qiagen single siRNA	-1.47	-1.47		-0.354	inactive
Prrt3 (proline-rich transmembrane protein 3)	SID315488070	ambion single siRNA	-2.98	-3.79	-2.18	-2.67	active
Prrt3 (proline-rich transmembrane protein 3)	SID315488071	ambion single siRNA	-1.98	-0.799	-3.16	-2.67	inactive
Prrt3 (proline-rich transmembrane protein 3)	SID315488072	ambion single siRNA	-2.43	-1.3	-3.56	-2.67	active
Prrt3 (proline-rich transmembrane protein 3)	SID315488073	qiagen single siRNA	2.56	3.43	1.68	1.98	active
Prrt3 (proline-rich transmembrane protein 3)	SID315488074	qiagen single siRNA	3.14	2.29	3.99	1.98	active
Prrt3 (proline-rich transmembrane protein 3)	SID315488075	qiagen single siRNA	-2.68	-2.5	-2.85	1.98	active
Traf2 (TNF receptor-associated factor 2)	SID315485034	ambion single siRNA	1.1	2.02	0.19	-1.37	inactive
Traf2 (TNF receptor-associated factor 2)	SID315485035	ambion single siRNA	-1.37	-1.27	-1.48	-1.37	inactive
Traf2 (TNF receptor-associated factor 2)	SID315485036	ambion single siRNA	-6.47	-6.08	-6.86	-1.37	active
Traf2 (TNF receptor-associated factor 2)	SID315485037	qiagen single siRNA	-0.678	-0.797	-0.558	-0.236	inactive
Traf2 (TNF receptor-associated factor 2)	SID315485038	qiagen single siRNA	2.4	1.01	3.79	-0.236	active
Traf2 (TNF receptor-associated factor 2)	SID315485039	qiagen single siRNA	-0.431	0.0863	-0.949	-0.236	inactive
Zp3r (zona pellucida 3 receptor)	SID315485130	ambion single siRNA	1.06	1.39	0.743	-0.209	inactive
Zp3r (zona pellucida 3 receptor)	SID315485131	ambion single siRNA	-0.209	-0.223	-0.196	-0.209	inactive
Zp3r (zona pellucida 3 receptor)	SID315485132	ambion single siRNA	-3.7	-1.83	-5.56	-0.209	active
Zp3r (zona pellucida 3 receptor)	SID315485133	qiagen single siRNA	3.2	1.9	4.5	1.05	active
Zp3r (zona pellucida 3 receptor)	SID315485134	qiagen single siRNA	0.865	0.903	0.827	1.05	inactive
Zp3r (zona pellucida 3 receptor)	SID315485135	qiagen single siRNA	1.05	0.884	1.21	1.05	inactive
